The source of these data is article PMC13031558.

The chains behind the UniProt entries cited, without tags or fusion partners. Residues count along the entry.
UniProt Q9BRS8, 70-300: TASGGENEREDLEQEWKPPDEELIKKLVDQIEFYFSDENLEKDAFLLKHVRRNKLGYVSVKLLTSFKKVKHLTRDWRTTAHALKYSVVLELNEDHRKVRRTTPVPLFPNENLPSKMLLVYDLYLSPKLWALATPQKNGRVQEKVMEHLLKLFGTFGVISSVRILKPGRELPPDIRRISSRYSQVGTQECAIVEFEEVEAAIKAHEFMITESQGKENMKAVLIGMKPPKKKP

For at least one entry, the source does not settle the construct or the ends of the probe. At least one verdict was read from the data and is not stated in words by the source.

The data set concerns the target LARP6 La-module (Homo sapiens) (UniProt Q9BRS8). Nature of the data set: NMR. The following applies: RNA titration; recombinant protein; residues 70-300; protein details: His tag cleaved by TEV.

As for “CUAAAUACAACACUGAUACUAGAUU [CTNNA1 P1 (SAXS/NMR)]”, the binding result was “binds”.
